From ChEMBL document CHEMBL4303122, “Identification of potential treatments for COVID-19 through artificial intelligence-enabled phenomic analysis of human cells infected with SARS-CoV-2” (2020)
Over roughly 1,600 compounds, “Hit score” has its median near 0.13; the highest 2% begin near 0.46. Some of the results follow.

What follows are compounds tested on SARS-CoV-2 (assay: Antiviral activity against SARS-CoV-2 (USA-WA1/2020 strain) measured by imaging in HRCE cells at MOI 0.4 after 96 hrs (reported as hit score from 0-1 for on-disease vs off-disease activity: scores >0.6 considered hits)).
Assay type: functional, Homo sapiens

SMILES | Hit score
CNC1(C)C2CCC(C2)C1(C)C (stereo not given) [MECAMYLAMINE] | 0.1041
C=C1[C@H](CO)[C@@H](O)C[C@@H]1n1cnc2c(=O)[nH]c(N)nc21.O | 0.1346
CC(C)(Oc1ccc(C2CC2(Cl)Cl)cc1)C(=O)O (stereo not given) [CIPROFIBRATE] | 0.1099
OC(c1ccccc1)(c1ccccc1)C12CC[N+](CCOCc3ccccc3)(CC1)CC2.[Br-] [UMECLIDINIUM BROMIDE] | 0.1319
CC1(C)O[C@@H]2C[C@H]3[C@@H]4C[C@H](F)C5=CC(=O)C=C[C@]5(C)[C@H]4[C@@H](O)C[C@]3(C)[C@]2(C(=O)CO)O1 [FLUNISOLIDE] | 0.1937
CC1(C)O[C@@H]2[C@@H](CO[C@@]3(COS(N)(=O)=O)OC(C)(C)O[C@@H]23)O1 [TOPIRAMATE] | 0.1748
CCn1cc(C(=O)O)c(=O)c2cc(F)c(N3CCNCC3)cc21 [NORFLOXACIN] | 0.1871
CCOC(=O)C1=C(C)NC(C)=C(C(=O)OC)C1c1cccc([N+](=O)[O-])c1 (stereo not given) [NITRENDIPINE] | 0.1479
CC[C@H](C)C(=O)O[C@H]1C[C@@H](C)C=C2C=C[C@H](C)[C@H](CC[C@@H]3C[C@@H](O)CC(=O)O3)[C@H]21 [LOVASTATIN] | -0.08588
NS(=O)(=O)c1cc2c(cc1C(F)(F)F)NC(Cc1ccccc1)NS2(=O)=O (stereo not given) [BENDROFLUMETHIAZIDE] | 0.1205
CNC(=O)c1ccccc1Sc1ccc2c(/C=C/c3ccccn3)n[nH]c2c1 [AXITINIB] | 0.3944
CC(CN1c2ccccc2Sc2ccccc21)N(C)C (stereo not given) [PROMETHAZINE] | 0.1366
CNC(=O)c1ccc(N2C(=S)N(c3cnc(C#N)c(C(F)(F)F)c3)C(=O)C23CCC3)cc1F [APALUTAMIDE] | 0.1472
COc1cc2c(c(OC)c1OC)-c1ccc(OC)c(=O)cc1[C@@H](NC(C)=O)CC2 [COLCHICINE] | 0.376
O=C(c1ccc(OCCN2CCCCC2)cc1)c1c(-c2ccc(O)cc2)sc2cc(O)ccc12 [RALOXIFENE] | 0.2342
CN1CCN(c2ccc(C(=O)Nc3n[nH]c4ccc(Cc5cc(F)cc(F)c5)cc34)c(NC3CCOCC3)c2)CC1 [ENTRECTINIB] | 0.04314
CC1=C(/C=C/C(C)=C/C=C/C(C)=C/C=O)C(C)(C)CCC1 [RETINAL] | 0.3836
CCCC(CCC)C(=O)O.CCCC(CCC)C(=O)[O-].[Na+] [DIVALPROEX SODIUM] | 0.2277
Nc1nc(N)nc(-c2cc(Cl)ccc2Cl)n1 [IRSOGLADINE] | 0.4068
CCN1CCCC1CNC(=O)c1cc(S(=O)(=O)CC)c(N)cc1OC (stereo not given) [AMISULPRIDE] | 0.2622
CC[C@@H](C(=O)[C@@H](C)[C@@H](O)[C@H](C)CCc1ccc(C)c(O)c1C(=O)O)[C@H]1O[C@](CC)([C@H]2CC[C@](O)(CC)[C@H](C)O2)C[C@@H]1C [LASALOCID] | 0.1351
COc1cc(N)c(Cl)cc1C(=O)NC1CCN(Cc2ccccc2)CC1 [CLEBOPRIDE] | 0.01312

3 neighbouring records already listed, for reference:
SMILES | Hit score
CC[C@H](C)C(=O)O[C@H]1C[C@@H](C)C=C2C=C[C@H](C)[C@H](CC[C@@H]3C[C@@H](O)CC(=O)O3)[C@H]21 [LOVASTATIN] | -0.08588
NS(=O)(=O)c1cc2c(cc1C(F)(F)F)NC(Cc1ccccc1)NS2(=O)=O (stereo not given) [BENDROFLUMETHIAZIDE] | 0.1205
CNC(=O)c1ccccc1Sc1ccc2c(/C=C/c3ccccn3)n[nH]c2c1 [AXITINIB] | 0.3944

(next part)

SMILES | Hit score
CCCCOc1ccc(OCCCN2CCOCC2)cc1 [PRAMOXINE] | 0.1511
CCCC[C@H](C)C[C@H](O)/C=C/[C@H]1[C@H](O)CC(=O)[C@@H]1CCCC/C=C/C(=O)O [LIMAPROST] | 0.08234
CC1CCc2cc(F)cc3c(=O)c(C(=O)O)cn1c23 (stereo not given) [FLUMEQUINE] | 0.08092
C[C@@H](CO)NC(=O)[C@@H]1C=C2c3cccc4[nH]cc(c34)C[C@H]2N(C)C1 [ERGONOVINE] | 0.1101
CC(C)c1nc(CN(C)C(=O)N[C@H](C(=O)N[C@@H](Cc2ccccc2)C[C@H](O)[C@H](Cc2ccccc2)NC(=O)OCc2cncs2)C(C)C)cs1 [RITONAVIR] | 0.04574
COc1ccccc1OCCNCC(O)COc1cccc2[nH]c3ccccc3c12 (stereo not given) [CARVEDILOL] | 0.5244
COc1ccc(-n2nc(C(N)=O)c3c2C(=O)N(c2ccc(N4CCCCC4=O)cc2)CC3)cc1 [APIXABAN] | 0.2748
CC(=O)[C@@]1(O)CC[C@H]2[C@@H]3CCC4=CC(=O)CC[C@]4(C)[C@H]3CC[C@@]21C [HYDROXYPROGESTERONE] | 0.0576
CC(=O)O[C@H]1Cc2ccccc2N(C(N)=O)c2ccccc21 [ESLICARBAZEPINE ACETATE] | 0.123
COC(=O)Nc1nc2cc(C(=O)c3ccc(F)cc3)ccc2[nH]1 [FLUBENDAZOLE] | 0.2556
CC[N+]1(C)CCCC(OC(=O)C(O)(c2ccccc2)c2ccccc2)C1 (stereo not given) [PIPENZOLATE] | 0.1116
CO/N=C(\C(=O)N[C@@H]1C(=O)N2C(C(=O)[O-])=C(C[N+]3(C)CCCC3)CS[C@H]12)c1csc(N)n1 | 0.1073
CCN1CCN(c2cc(-c3ccc(F)cc3)c3c(n2)CCCCCC3)CC1 [BLONANSERIN] | 0.05184
CC(C)(C)NCC(O)c1ccc(O)c(CO)c1 (stereo not given) [ALBUTEROL] | -0.2997
CC1(C)O[C@@H]2C[C@H]3[C@@H]4C[C@H](F)C5=CC(=O)CC[C@]5(C)[C@H]4[C@@H](O)C[C@]3(C)[C@]2(C(=O)CO)O1 [FLURANDRENOLIDE] | 0.03434
Cl.[NH-]c1c[n+](N2CCOCC2)no1 | 0.228
CN(C)[C@@H](CCOc1cccc2ccccc12)c1ccccc1 [DAPOXETINE] | 0.1691
CC[C@H](Nc1ncnc2[nH]cnc12)c1nc2cccc(F)c2c(=O)n1-c1ccccc1 [IDELALISIB] | 0.4259
Cc1nccn1CCC(C(N)=O)(c1ccccc1)c1ccccc1 [IMIDAFENACIN] | 0.008612
CN[C@@H]1CCc2[nH]c3ccc(C(N)=O)cc3c2C1 [FROVATRIPTAN] | 0.1063
CC(C)(C)CC(=O)OCC(=O)[C@@]1(O)CC[C@H]2[C@@H]3CCC4=CC(=O)C=C[C@]4(C)[C@H]3[C@@H](O)C[C@@]21C [PREDNISOLONE TEBUTATE] | 0.1945
COC1=CC(=O)C[C@@H](C)[C@]12Oc1c(Cl)c(OC)cc(OC)c1C2=O [GRISEOFULVIN] | 0.06768

SMILES | Hit score
CCC(=O)NCC[C@@H]1CCc2ccc3c(c21)CCO3 [RAMELTEON] | 0.1348
COc1cc(O)c(C(=O)Nc2nc(C(=O)NCCN(C(C)C)C(C)C)cs2)cc1OC.Cl.O.O.O [ACOTIAMIDE HYDROCHLORIDE] | 0.02159
C=CC[C@@H]1/C=C(\C)C[C@H](C)C[C@H](OC)[C@H]2O[C@@](O)(C(=O)C(=O)N3CCCC[C@H]3C(=O)O[C@H](/C(C)=C/[C@@H]3CC[C@@H](O)[C@H](OC)C3)[C@H](C)[C@@H](O)CC1=O)[C@H](C)C[C@@H]2OC [TACROLIMUS ANHYDROUS] | 0.3285
OCC(O)CN1CCN(c2ccccc2)CC1 (stereo not given) [DROPROPIZINE] | 0.145
Nc1nc(=O)c2c([nH]1)NC[C@H](CNc1ccc(C(=O)N[C@@H](CCC(=O)O)C(=O)O)cc1)N2C=O [LEVOLEUCOVORIN] | 0.1157
CC[C@@H](C(=O)O)[C@@H]1O[C@@H]([C@@H](C)[C@H](O)[C@H](C)C(=O)[C@H](CC)[C@H]2O[C@]3(C=C[C@@H](O)[C@]4(CC[C@@](C)([C@H]5CC[C@](O)(CC)[C@H](C)O5)O4)O3)[C@H](C)C[C@@H]2C)[C@@H](C)C[C@@H]1C [NARASIN] | -0.02006
Cc1cc(O)c(C(=O)N[C@@H](C(=O)N[C@@H]2C(=O)N3C(C(=O)O)=C(CSc4nnnn4C)CS[C@H]23)c2ccc(O)cc2)cn1 [CEFPIRAMIDE] | 0.1367
Cc1c(NC(C)C)c(=O)n(-c2ccccc2)n1C [RAMIFENAZONE] | 0.01431
CCOC(=O)Nc1ccc(NCc2ccc(F)cc2)cc1N [EZOGABINE] | 0.1746
NCCc1cc[nH]n1 [BETAZOLE] | 0.1111
COc1ccc2c(O[C@@H]3C[C@H]4C(=O)N[C@]5(C(=O)NS(=O)(=O)C6CC6)C[C@H]5/C=C\CCCCN(C)C(=O)[C@@H]4C3)cc(-c3nc(C(C)C)cs3)nc2c1C | 0.1824
NS(=O)(=O)Cc1noc2ccccc12 [ZONISAMIDE] | 0.02562
CN(C)CCN(Cc1ccc(Cl)cc1)c1ccccn1 [CHLOROPYRAMINE] | 0.008614
CCCCCCCCCCOc1cc2c(O)c(C(=O)OCC)cnc2cc1OCC [DECOQUINATE] | 0.0589
Cc1cc(C(C#N)c2ccc(Cl)cc2)c(Cl)cc1NC(=O)c1cc(I)cc(I)c1O (stereo not given) [CLOSANTEL] | 0.1396
CN1C(=O)C[C@@H](C(=O)N[C@@H](Cc2c[nH]cn2)C(=O)N2CCC[C@H]2C(N)=O)NC1=O [TALTIRELIN] | 0.1273
CC(C[N+](C)(C)C)OC(N)=O (stereo not given) [BETHANECHOL] | 0.07337
O=C(O)c1nn(Cc2ccc(Cl)cc2Cl)c2ccccc12 [LONIDAMINE] | 0.2694
Cc1cc2c(OCC(CNC(C)(C)C)OC(=O)c3ccccc3)cccc2[nH]1 (stereo not given) [BOPINDOLOL] | 0.2339
Cc1ccc(Sc2ccccc2N2CCNCC2)c(C)c1 [VORTIOXETINE] | 0.1805
COc1ccc(CN(CCN(C)C)c2ncccn2)cc1 [THONZYLAMINE] | 0.09678
